Laboratory results: publication PMC3812036
These are yes or no findings as the source states them, for the method shown. Binding seen in cells or lysates may run through a third protein. Some entries that bind do so weakly or less than the wild type. Tags and fused reporters may be left off the sequences shown.

By UniProt entry, the sequences of proteins in these tests, tags left out.
UniProt P50750: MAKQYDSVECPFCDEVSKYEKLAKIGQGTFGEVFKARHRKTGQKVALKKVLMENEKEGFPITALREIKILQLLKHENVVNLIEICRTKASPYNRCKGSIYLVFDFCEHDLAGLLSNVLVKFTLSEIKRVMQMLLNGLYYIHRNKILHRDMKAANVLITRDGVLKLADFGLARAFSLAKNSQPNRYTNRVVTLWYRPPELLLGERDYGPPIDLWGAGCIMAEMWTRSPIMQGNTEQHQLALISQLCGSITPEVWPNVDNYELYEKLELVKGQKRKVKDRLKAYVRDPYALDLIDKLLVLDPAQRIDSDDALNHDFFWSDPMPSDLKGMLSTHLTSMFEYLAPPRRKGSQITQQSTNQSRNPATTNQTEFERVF

B1: FLAG-tagged ZASC1 (protein, UniProt Q9UID6 1-485)
chain: MNEYPKKRKRKTLHPSRYSDSSGISRIADGFNGIFSDHCYSVCSMRQPDLKYFDNKDDDSDTETSNDLPKFADGIKARNRNQNYLVPSPVLRILDHTAFSTEKSADIVICDEECDSPESVNQQTQEESPIEVHTAEDVPIAVEVHAISEDYDIETENNSSESLQDQTDEEPPAKLCKILDKSQALNVTAQQKWPLLRANSSGLYKCELCEFNSKYFSDLKQHMILKHKRTDSNVCRVCKESFSTNMLLIEHAKLHEEDPYICKYCDYKTVIFENLSQHIADTHFSDHLYWCEQCDVQFSSSSELYLHFQEHSCDEQYLCQFCEHETNDPEDLHSHVVNEHACKLIELSDKYNNGEHGQYSLLSKITFDKCKNFFVCQVCGFRSRLHTNVNRHVAIEHTKIFPHVCDDCGKGFSSMLEYCKHLNSHLSEGIYLCQYCEYSTGQIEDLKIHLDFKHSADLPHKCSDCLMRFGNERELISHLPVHETT

What was measured:
Myc-tagged ZASC1 = target: T1, Myc-tagged ZASC1 (UniProt Q9UID6); assay: co-IP; HEK293 cells transfected with Myc-ZASC1 and eGFP, untreated or treated with 10 µM DRB or 1 µg/ml actinomycin D for one h; lysate fractionated on a 5% to 45% glycerol gradient; fractions pooled in pairs and immunoprecipitated with non-specific mouse IgG or mouse anti-Myc IgG; western blot
T1 sequence: B1 chain

Myc-tagged CDK9 = Myc-tagged CDK9 (UniProt P50750); assay: co-IP

Molecule | binding (Myc-tagged ZASC1) | binding (Myc-tagged CDK9)
Endogenous CDK9 (from UniProt P50750 1-372) | binds | 
B1 |  | binds
